{
  "source": "patent US7105635B2",
  "about": "“Cyclic beta-sheet peptides useful as apoptotic/cytotoxic cancer agents” (The University of Toledo, priority 2002, dated 2006)",
  "key": {"CEM cells [1]": {"test_system": "CEM cells", "experiment": "[3H]-thymidine incorporation into DNA of CEM cells", "assay_type": "cell-based, human", "details": "for reduction of incorporation of tritiated thymidine: four-hour assay", "method": "FIG. 8 is a graph showing percent inhibition of thymidine incorporation as a function of peptide concentration. Each well of a microtiter plate received 200,000 CEM cells in log phase of growth, suspended in 50 μl complete medium. The same volume of diluted peptide, either linear or cyclized, was added to achieve the final concentrations shown. After a 1 -hour incubation at 37 degrees C., 1 μCi of [^3H]-thymidine in 25 μl medium was added, and the plates were incubated another 3 hours prior to harvesting. Control cells were incubated without either peptide, but with the same volume of medium.\nThe peptide called L1AD3, Seq. ID No. 1, prevents the proliferation of cancerous human T-lymphocytes (CEM cell line) by inhibiting incorporation of thymidine into DNA.\nThe L1AD3 peptide stops tumor cell division in both Jurkat and CEM cells with an EC50 of approximately 5 μM, as shown in FIG. 8. This is indicated by the inhibition of thymidine incorporation into DNA. […] In contrast to CTX, which rapidly depolarized skeletal muscle (Dufton and Hider, 1991), and which at 1 μM concentrations causes cessation of beating of embryonic chicken heart cells within 5–10 seconds, the L1AD3 peptide at 40 μM concentrations has no effect upon the beating of heart cells over 2 hours of observation. Therefore, it is believed that the L1AD3 peptide, along with the other seven peptides, is not harmful to the heart, in contrast to native CTX."}, "CEM cells [2]": {"test_system": "CEM cells", "experiment": "Annexin-V-FITC flow cytometry of phosphatidyl serine exposure (apoptosis), CEM cells", "assay_type": "cell-based, human", "method": "FIGS. 10a–d are graphs showing comparisons of phosphatidyl serine exposure on the outer surface of CEM cells following a 2.5-hour incubation with or without 40 μM cyclized L1AD3. After incubation, cells were washed twice with cold PBS prior to adding FITC-conjugated Annexin-V. Flow cytometry using a B-D FACSCalibur was performed, and 10,000 cells were analyzed using the B-D CellQuest program. Individual cells are represented in the dot plots on the left (FIGS. 10a and 10c), and histograms of the same data are on the right (FIGS. 10b and d). Whereas untreated tumor cells show less than 6% spontaneous apoptosis (FIG. 10c, lower left quadrant), 93% of cells treated with L1AD3 undergo apoptosis after 2.5 hours (FIG. 10d, lower right quadrant).\nFlow cytometry using fluorescent Annexin-V distinguishes cells with externalized phosphatidyl serine. As long as the cell's plasma membrane remains intact, fluorescent dyes such as ethidium bromide or propidium iodide are excluded. A 40 μM concentration of L1AD3 caused approximately 93% of CEM cells to become Annexin-V-positive within 2.5 hours, which is unusually short for signs of apoptosis to occur. Camptothecin, a cancer chemotherapeutic agent administered in control experiments at 20 μM, caused only 33% of the cells to appear apoptotic. […]"}, "Jurkat cells [3]": {"test_system": "Jurkat cells", "experiment": "phosphatidyl serine exposure (apoptosis), Jurkat cells", "assay_type": "cell-based, human"}, "CEM cells [4]": {"test_system": "CEM cells", "experiment": "cell permeability to ethidium bromide / propidium iodide, CEM cells", "assay_type": "cell-based, human", "method": "FIG. 11 is a graph showing changes in cell permeability to ethidium bromide following incubation with L1AD3 or with native CTX. CEM cells (10^6/ml) were incubated in quartz cuvets in a Shimidzu fluorescence spectrophotometer with 1 μg/ml ethidium bromide. Either CTX at a final concentration of 1.6 μM or L1AD3 at a final concentration of 40 μM was added, and readings were taken at 5-minute intervals, with excitation at 526 nm and emission measured at 608 nm.\nFlow cytometry using fluorescent Annexin-V distinguishes cells with externalized phosphatidyl serine. As long as the cell's plasma membrane remains intact, fluorescent dyes such as ethidium bromide or propidium iodide are excluded. A 40 μM concentration of L1AD3 caused approximately 93% of CEM cells to become Annexin-V-positive within 2.5 hours, which is unusually short for signs of apoptosis to occur. Camptothecin, a cancer chemotherapeutic agent administered in control experiments at 20 μM, caused only 33% of the cells to appear apoptotic.\nSince whole CTX can rapidly permeabilize leukemic T-lymphocytes, separate experiments using a fluorescence spectrophotometer were applied to examine changes in plasma membrane permeability to ethidium bromide following exposure of CEM cells either to L1AD3 or to CTX."}, "Jurkat cells [5]": {"test_system": "Jurkat cells", "experiment": "cell permeability to ethidium bromide / propidium iodide, Jurkat cells", "assay_type": "cell-based, human"}, "CEM cells [6]": {"test_system": "CEM cells", "experiment": "luciferin/luciferase bioluminescence assay of total ATP in CEM cells", "assay_type": "cell-based, human", "details": "20 μM, 30 minutes' incubation", "method": "FIG. 9 is a graph showing the amounts of total ATP present in cell lysates following incubation of CEM cells with peptide analogs. Cyclized peptides were added at double their final concentration, which was 20 μM, to triplicate wells of a black 96-well reaction plate. CEM cells (50,000 per well) were added in the same volume, and the plate was incubated 30 minutes at 37 degrees. Lysis buffer (Sigma) was added, followed by luciferin/luciferase assay buffer (Molecular Probes). The plate was sealed with a clear plastic film and read using a Packard Top-Count reader. Cells with medium only had ATP levels of 1073±160 in arbitrary luminescence units. Peptide analogs are identified by single amino acid modifications.\nChanges in cellular energy levels can contribute to the process of cytotoxicity. ATP was measured using a 96-well luciferin/luciferase bioluminescence assay system and found a 60% reduction in ATP after 30 minutes' incubation of CEM cells with 20 μM L1AD3, as shown in FIG. 9. While somewhat large, this reduction of ATP is consistent with apoptosis, inasmuch as necrosis tends to occur when ATP levels drop to below 30% of control."}, "[7]": {"test_system": "normal human peripheral blood lymphocytes", "experiment": "biotin-avidin sorbant binding assay, normal human PBL's", "details": "with or without non-biotinylated L1AD3"}},
  "note": "“Also recorded” adds a separate entry of the source. At least one peptide structure holds a part that was inferred or is arguable (an end, a ring closure or a residue). Positions of bridges follow the written chain, without caps; N, C: chain ends. Residues, ends and D or L forms follow the SMILES beside them.",
  "data": [
    {"smiles": "CC(C)C[C@@H]1NC(=O)[C@H](CCCCN)NC(=O)[C@H](CC(N)=O)NC(=O)[C@@H](NC(=O)[C@H](CCCCN)NC(=O)[C@@H](N)CC(C)C)CSSC[C@@H](C(=O)O)NC(=O)[C@H]([C@@H](C)O)NC(=O)[C@H](CCCCN)NC(=O)[C@H](Cc2ccc(O)cc2)NC(=O)[C@H](Cc2ccccc2)NC(=O)[C@H](CC(C)C)NC(=O)[C@@H]2CCCN2C(=O)[C@H](C(C)C)NC1=O", "note": "[L1AD3, Leu-Lys-Cys-Asn-Lys-Leu-Val-Pro-Leu-Phe-Tyr-Lys-Thr-Cys] (H-LKCNKLVPLFYKTC-OH; disulfide 3-14)", "values": [
      {"measurement": "reduction of incorporation of tritiated thymidine", "setting": "CEM cells [1]; 0.625 μM peptide", "result": 13, "unit": "%"},
      {"measurement": "reduction of incorporation of tritiated thymidine", "setting": "CEM cells [1]; 40 μM peptide", "result": 99.7, "unit": "%"},
      {"measurement": "activity against human tumor T-lymphocytes (CEM line), inhibition of thymidine incorporation", "setting": "CEM cells [1]; previous work by the inventors", "result": "highly active"},
      {"measurement": "EC50 relative to the CTX EC50 upon mouse L1210 cells or human CEM cells", "setting": "CEM cells [1]; ratio to literature CTX EC50 (Hinman, Jiang and Tang, 1990)", "result": "approximately ten times"},
      {"measurement": "exposure of phosphatidyl serine on the outer cell surface", "setting": "CEM cells [2]", "result": "induces the exposure of phosphatidyl serine"},
      {"measurement": "exposure of phosphatidyl serine on the outer cell surface", "setting": "Jurkat cells [3]", "result": "induces the exposure of phosphatidyl serine"},
      {"measurement": "permeability to ethidium bromide over time", "setting": "CEM cells [4]; 40 μM, fluorescence spectrophotometer", "result": "remained impermeable for 2 hours"},
      {"measurement": "cell permeability to ethidium bromide or propidium iodide", "setting": "CEM cells [4]; CEM cells", "result": "does not make the cells permeable; also recorded: neither L1AD3 nor camptothecin caused increases in cell permeability; also recorded: does not permeabilize; also recorded: remained impermeable"},
      {"measurement": "cell permeability to ethidium bromide or propidium iodide", "setting": "Jurkat cells [5]", "result": "does not make the cells permeable; also recorded: does not permeabilize"},
      {"measurement": "reduction in ATP", "setting": "CEM cells [6]", "result": 60, "unit": "%"},
      {"measurement": "binding to normal human white blood cells / PBL's", "setting": "[7]", "result": "no appreciable binding"}
    ]}
  ]
}
